Results reported in PubChem BioAssay AID1487 (National Center for Advancing Translational Sciences (NCATS), 2009).
The other results are listed elsewhere or left out. The main result of the screen is listed elsewhere. These columns were measured beside it and carry no call. Most of these compounds were active or inconclusive in the main read-out, so they are no random draw. Words in brackets tell the shape of the fitted curve; partial curves, single points and poor fits give uncertain potencies.

Test: qHTS Assay for Modulators of Lamin A Splicing
Details: HeLa LMNA splicing GFP/RFP minigene ratio, 48 h
Method in brief: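 Read-out is the ratio of GFP to DsRed2 object intensity, acquired by 488 nm laser-scanning cytometry on HeLa lamin A-EGFP minigene reporter cells. Compound incubation 48 hrs at 37 °C in Opti-MEM with 2% FBS; DMSO 0.5% final.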

[1] = measured here: RFP viability control channel
[2] = measured here: GFP splicing reporter channel

Q: Which AC50 [1] does the source give for `COc1ccccc1N=c1scc(-c2ccc3c(c2)NC(=O)CO3)n1CC1CCCO1` (centres undefined) here?
A: Its AC50 is 10 µM [rising, single point].

Q: With `CCc1ccc(NC(=O)Cn2nnc(C(=O)Nc3cc(C)ccc3OC)c2N)cc1` as the compound, how does the AC50 [1] read?
A: The AC50 was 12.6 µM [falling, partial curve, poor fit].

Q: For `CCc1n[nH]c(=S)n1/N=C/c1cc(Br)c(OC)cc1OC`, which AC50 [1] is on record?
A: The AC50 was 22.4 µM [rising, single point].

Q: With `Cc1cccc(-c2cc3nc(-c4ccccc4)cc(N4CCC5(CC4)OCCO5)n3n2)c1` as the compound, how does the AC50 [1] read?
A: The AC50 was 31.6 µM [rising, single point].

Q: With `O=C(NCc1cccnc1)C(=O)NCC(c1ccco1)N1CCOCC1` (centres undefined) as the compound, how does the AC50 [1] read?
A: Its AC50 is 1.12 µM [falling, partial curve].

Q: For `COc1ccc(NC(=O)/C(Cl)=C(/Cl)S(=O)Cc2ccccc2)cn1` (centres undefined), which AC50 [2] is on record?
A: Its AC50 is 6.31 µM [falling, full curve].

Q: What about the AC50 [1] of the same compound?
A: Its AC50 is 7.94 µM [falling, partial curve].

Q: With `Cc1c(Cl)cnc(NC(=O)COC(=O)c2cccc(S(=O)(=O)N3c4ccccc4CC3C)c2)c1Cl` (centres undefined) as the compound, how does the AC50 [1] read?
A: Its AC50 is 0.126 µM [rising, full curve].

Q: Which AC50 [1] does the source give for `CCN(CC)c1cc2nonc2c2nonc12` here?
A: Its AC50 is 2.82 µM [falling, partial curve].

Q: With `Cc1ccc(N2C(=O)C3C4C=CC(CNC(=S)Nc5ccc(F)cc5)(O4)C3C2=O)cc1` (centres undefined) as the compound, how does the AC50 [2] read?
A: Its AC50 is 11.2 µM [rising, partial curve].

Q: And the AC50 [1]?
A: The AC50 was 14.1 µM [rising, partial curve].

Q: For `CC(C)Nc1nnc(SCC(=O)c2c[nH]c3ccccc23)s1`, which AC50 [2] is on record?
A: Its AC50 is 17.8 µM [rising, single point].

Q: And the AC50 [1]?
A: Its AC50 is 22.4 µM [rising, single point].

Q: Which AC50 [2] does the source give for `O=C(CCN1CCN(c2ccccc2)CC1)Nc1ccc(Cl)cc1` here?
A: The AC50 was 14.1 µM [rising, single point].

Q: And the AC50 [1]?
A: The AC50 was 35.5 µM [rising, single point].

Q: Which results are given for `Cc1cccc(-n2ncc3c(Nc4c(C)cc(C)cc4C)ncnc32)c1`?
A: AC50 [2]: 8.91 µM [falling, partial curve, poor fit]; AC50 [1]: 10 µM [falling, partial curve, poor fit]

Q: For `COc1ccc(NC(=O)c2cc(-c3cc(C)cc(C)c3O)n[nH]2)cc1Cl`, which AC50 [1] is on record?
A: Its AC50 is 12.6 µM [rising, partial curve].

Q: Which AC50 [2] does the source give for `Cc1ccc(N=Nc2c(O)n(CN3CCOCC3)c3ccccc23)cc1` here?
A: Its AC50 is 25.1 µM [falling, single point].

Q: And the AC50 [1]?
A: Its AC50 is 35.5 µM [falling, single point].

Q: Which results are given for `COc1ccc(/C=C2/SC(=O)N(CCNC(=O)C3CCCN3C(=O)c3cccs3)C2=O)cc1` (centres undefined)?
A: AC50 [2]: 7.94 µM [rising, partial curve, poor fit]; AC50 [1]: 14.1 µM [rising, partial curve]

Q: What does the source list for `CCCn1c(N)c(C(=O)CSc2ncc(C(F)(F)F)cc2Cl)c(=O)[nH]c1=O`?
A: AC50 [2]: 12.6 µM [falling, partial curve, poor fit]; AC50 [1]: 1.78 µM [falling, full curve, poor fit]

Q: With `CC(Cc1cccs1)NC(=O)Nc1ccc(Cl)cc1` (centres undefined) as the compound, how does the AC50 [1] read?
A: The AC50 was 35.5 µM [rising, single point].

Q: What does the source list for `O=C(c1csc2c1CCCC2)N1CCN(c2cccc(C(F)(F)F)c2)CC1`?
A: AC50 [2]: 31.6 µM [rising, single point]; AC50 [1]: 25.1 µM [rising, single point]

Q: Which AC50 [2] does the source give for `CC(C)NC(=O)c1ccccc1S(=O)(=O)c1ccccc1C#N` here?
A: The AC50 was 3.98 µM [falling, partial curve].

Q: And the AC50 [1]?
A: Its AC50 is 5.01 µM [falling, partial curve, poor fit].

Q: With `COc1ccc(C(=S)NC2CCCCC2)cc1` as the compound, how does the AC50 [1] read?
A: Its AC50 is 31.6 µM [rising, single point].

Q: For `O=C(CCc1ccc(Oc2cc([N+](=O)[O-])cc([N+](=O)[O-])c2)cc1)N1CCCCCC1`, which AC50 [1] is on record?
A: The AC50 was 15.8 µM [rising, single point].

Q: Which AC50 [2] does the source give for `CCNc1ncc2ncc(=O)n(Cc3cccs3)c2n1` here?
A: The AC50 was 17.8 µM [falling, single point].

Q: And the AC50 [1]?
A: The AC50 was 22.4 µM [falling, single point].

Q: For `Cc1ccc2c(c1)c(C)cc[n+]2Cc1ccccc1`, which AC50 [1] is on record?
A: The AC50 was 10 µM [rising, partial curve].

Q: For `COc1ccc(NC(=O)/C(Cl)=C(/Cl)S(=O)Cc2ccc(Cl)cc2)cn1` (centres undefined), which AC50 [2] is on record?
A: The AC50 was 3.98 µM [falling, full curve].

Q: For `COc1ccc(Cn2ccc3nc(C)c(C(=O)Nc4ccc(OC)cc4OC)cc3c2=O)cc1`, which AC50 [2] is on record?
A: Its AC50 is 15.8 µM [rising, partial curve, poor fit].

Q: Which AC50 [1] does the source give for `Cc1ccc(NC(=O)Cn2cc(S(=O)(=O)NC(C)C)c(S(=O)(=O)NC(C)C)c2)cc1Cl` here?
A: The AC50 was 35.5 µM [rising, single point].

Q: What does the source list for `Cc1c(CN2CCC(CO)(CCOc3ccccc3)CC2)[nH]c2c(Cl)cccc12`?
A: AC50 [2]: 12.6 µM [falling, partial curve]; AC50 [1]: 11.2 µM [falling, partial curve]

Q: With `COCCn1c(-c2ccc(Cl)cc2)cnc1SCC(=O)NCc1cccs1` as the compound, how does the AC50 [1] read?
A: The AC50 was 17.8 µM [rising, single point].

Q: With `COc1ccccc1CNc1nc(-c2ccc3c(c2)OCO3)nc2ccccc12` as the compound, how does the AC50 [2] read?
A: Its AC50 is 15.8 µM [falling, partial curve].

Q: What about the AC50 [1] of the same compound?
A: Its AC50 is 15.8 µM [falling, partial curve].

Q: Which AC50 [2] does the source give for `Cc1ccc(NC(=O)c2cc(-c3ccccc3)nn2-c2ccccc2)cc1` here?
A: The AC50 was 14.1 µM [rising, single point].

Q: And the AC50 [1]?
A: The AC50 was 25.1 µM [rising, partial curve].

Q: With `O=C1CN(C(=O)c2ccc(F)c(S(=O)(=O)N3CCOCC3)c2)c2ccccc2N1` as the compound, how does the AC50 [2] read?
A: The AC50 was 0.00891 µM [falling, full curve, poor fit].

Q: Which AC50 [2] does the source give for `Cc1ccc(C)c(N2CCN(C(=O)COc3cc(=O)n(C)c4ccccc34)CC2)c1` here?
A: The AC50 was 12.6 µM [rising, single point].

Q: What about the AC50 [1] of the same compound?
A: Its AC50 is 20 µM [rising, single point].

Q: With `Cc1ccc(C)c(N(C(=O)c2nsc(Cl)c2Cl)C(C(=O)NC2CCCC2)c2ccc(O)cc2)c1` (centres undefined) as the compound, how does the AC50 [1] read?
A: Its AC50 is 15.8 µM [rising, single point].

Q: For `COc1ccccc1-c1nnc(SCc2nc3ccccc3s2)n1C`, which AC50 [2] is on record?
A: Its AC50 is 1.26 µM [falling, single point].
